Source: paper PMC7194030 (Science translational medicine, 2019)
Where a name gives a salt, the structure may show the parent alone.

System: Mx1-Cre Srsf2P95H/WT MDS mice
Assay type: in vivo

## Cc1ccccc1C(OCCN(C)C)c1ccccc1 (centres unmarked) [orphenadrine citrate]
OR 100 mg/kg daily, to a level similar to control wild-type mice
  Survival of MDS disease mice: extended the survival
mouse, in vivo
  Weight loss, liver or kidney function: no substantial effects
